Experimental data: publication doi:10.1101/2020.12.29.424754

The chains behind the UniProt entries cited, without tags or fusion partners. Where a name states a change or a piece, a line headed by the entry shows the natural chain unless it says otherwise.
UniProt Q57ZD6: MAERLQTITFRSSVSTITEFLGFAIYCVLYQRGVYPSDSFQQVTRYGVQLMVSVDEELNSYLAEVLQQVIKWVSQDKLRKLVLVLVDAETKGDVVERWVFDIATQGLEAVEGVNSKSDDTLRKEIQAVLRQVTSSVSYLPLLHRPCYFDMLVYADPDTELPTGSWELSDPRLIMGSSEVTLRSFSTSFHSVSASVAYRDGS
UniProt Q9NC98: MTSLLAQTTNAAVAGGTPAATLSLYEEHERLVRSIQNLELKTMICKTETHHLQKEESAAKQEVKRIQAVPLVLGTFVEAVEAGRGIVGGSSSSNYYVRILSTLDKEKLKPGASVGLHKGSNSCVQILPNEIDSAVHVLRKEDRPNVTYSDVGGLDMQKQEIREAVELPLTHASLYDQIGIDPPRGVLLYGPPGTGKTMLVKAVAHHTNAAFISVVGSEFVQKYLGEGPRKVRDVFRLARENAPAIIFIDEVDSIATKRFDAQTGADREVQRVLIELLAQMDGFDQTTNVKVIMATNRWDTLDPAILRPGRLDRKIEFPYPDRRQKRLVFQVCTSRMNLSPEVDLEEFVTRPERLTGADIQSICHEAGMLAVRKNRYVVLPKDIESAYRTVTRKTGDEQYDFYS
UniProt Q9NCA0: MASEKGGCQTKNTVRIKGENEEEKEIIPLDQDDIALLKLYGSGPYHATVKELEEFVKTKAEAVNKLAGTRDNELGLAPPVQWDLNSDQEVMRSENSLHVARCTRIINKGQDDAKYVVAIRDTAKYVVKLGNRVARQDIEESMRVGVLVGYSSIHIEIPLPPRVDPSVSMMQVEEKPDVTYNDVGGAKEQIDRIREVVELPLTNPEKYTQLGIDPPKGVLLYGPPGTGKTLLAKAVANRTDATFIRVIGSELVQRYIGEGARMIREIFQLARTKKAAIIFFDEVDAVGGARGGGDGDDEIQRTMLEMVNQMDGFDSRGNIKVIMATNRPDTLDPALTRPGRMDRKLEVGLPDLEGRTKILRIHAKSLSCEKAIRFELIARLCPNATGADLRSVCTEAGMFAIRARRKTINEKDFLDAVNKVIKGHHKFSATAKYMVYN
UniProt Q9NC99: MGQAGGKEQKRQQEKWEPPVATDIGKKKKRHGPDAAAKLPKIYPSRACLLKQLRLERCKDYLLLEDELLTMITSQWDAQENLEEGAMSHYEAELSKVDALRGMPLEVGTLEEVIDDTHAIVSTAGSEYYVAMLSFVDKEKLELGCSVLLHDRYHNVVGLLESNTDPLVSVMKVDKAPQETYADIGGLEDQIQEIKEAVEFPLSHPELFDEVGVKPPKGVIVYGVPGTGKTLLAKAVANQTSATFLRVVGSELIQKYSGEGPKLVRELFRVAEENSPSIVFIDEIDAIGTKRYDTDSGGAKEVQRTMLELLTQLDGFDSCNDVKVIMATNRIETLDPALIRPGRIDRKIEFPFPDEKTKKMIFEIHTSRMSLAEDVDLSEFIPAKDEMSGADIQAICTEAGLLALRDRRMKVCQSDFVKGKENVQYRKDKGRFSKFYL
UniProt Q8WRU0: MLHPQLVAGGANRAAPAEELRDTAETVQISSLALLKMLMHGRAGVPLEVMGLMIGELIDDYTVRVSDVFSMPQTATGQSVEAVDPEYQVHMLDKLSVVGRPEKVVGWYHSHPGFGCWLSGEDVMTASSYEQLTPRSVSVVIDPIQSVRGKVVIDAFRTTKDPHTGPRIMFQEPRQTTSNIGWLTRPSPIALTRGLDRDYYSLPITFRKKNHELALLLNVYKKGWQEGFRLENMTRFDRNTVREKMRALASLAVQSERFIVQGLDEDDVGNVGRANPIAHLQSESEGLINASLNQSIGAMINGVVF

Biological target: YFP-tagged TbMad2 (T. brucei) (UniProt Q57ZD6)
Assay: affinity purification with mass spectrometry

Molecule	binding
RPT3 (from UniProt Q9NC98)	binds
RPT1 (from UniProt Q9NCA0)	binds
RPT2 (from UniProt Q9NC99)	binds
RPN11 (from UniProt Q8WRU0)	binds
RPT5 (protein, UniProt Q9NC96 1-445) MTQDTARATGGAAEGDRGGTSDASAAAQLSPEELENIDSLTNQAPRNRSTQLQREIHQLKNEERTMSSELAGLRREVEESQKRVRDSNKLPYLVASIAEVLDLEADDQDVEELNVGKKKSRHPQKSAIIKTSSRQTVFLPVVGLVDANKLSPQDLVGVNKDTFLVLEELPPEYDSRVKAMEIVEKPKEKYTDVGGLDKQINEMIEAVVLPITEKEKYVRIGIKPPKGVLLYGSPGTGKTMLARACAASTDACFLRLAGPQLVQMYIGEGARILRDAFALAKKRAPTIIFIDELDAIGSRRSDEGSKHGSREVQRRMLELLSLLDGFGSTDDVKVIAATNRIDVLDPALLRRGRIDRKVEFTLPDEEARAHILQIHSRRMALHGDVNFEEISRMTEDMNGAQLKAVCVEAGMLALRNERVYVAHEDFAEGVTAVQARKKSSLNYYA	binds

No constants are given. Whether binding was seen depends on the method and setting. Binding seen in cells or lysates may run through a third protein. A yes stands for co-enrichment or nearness to the bait. Other partners may have been found.
